Source: patent publication US20150376225A1, “NOVEL COMPOUNDS OF 11BETA-HYDROXY-STEROIDS FOR USE IN MITOCHONDRIA BIOGENESIS AND DISEASES ASSOCIATED WITH MITOCHONDRIAL DYSFUNCTION OR DEPLETION” (SPHAERA PHARMA PVTD. LTD., priority 2013, published 2015)

Test system: BCAEC
Experiment: 3-(4,5-Dimethylthiazol-2-yl)-2,5-diphenyltetrazolium bromide (MTT) assay, mitochondrial function (MTT/Methylene Blue ratio)
Format: cell-based, bovine
Details: treated for 48 hours
Description: 3-(4,5-Dimethylthiazol-2-yl)-2,5-diphenyltetrazolium bromide (MTT) assay
6,000 BCAEC were seeded into clear 96-well flat bottom plates at 100 μl per well. After starvation, cells were treated for 48 hours with the corresponding compounds. Compounds were changed every 12 and 24 hours (with 100 μl per well of fresh medium). Following the treatment medium was aspirated from plates, and washed once with 100 μl HBSS, subsequently 100 μl per well 0.5 mg/ml MTT in phenol red-free DMEM was added. Plates were incubated for 1 hour at 37° C., and this was followed by aspiration of MTT solution, addition of 100 μl per well DMSO to dissolve formazan crystals, and incubation at 37° C. for 15 minutes. Mitochondrial function was quantified by absorbance was measured at 540 nm with background substraction at 670 nm using. After MTT absorbance measure, media was removed and cells quantify in each well as described elsewhere (Oliver et al, 1989) with some modifications. In brief, 100 μl of 10% formol saline to each well was added, and incubated at 4° C. for 24 hours. Next, formol solution was removed from the wells and 100 μl of filtered 0.1% (w/v) Methylene Blue in 0.01 M borate buffer (pH 8.5) was added to each well. […] Absorbance was measured at 650 nm. The MTT/Methylene Blue ratio was used to quantify the mitochondrial function. […]

Structure (SMILES) | MTT Assay
CC(=O)[C@H]1CC[C@H]2[C@@H]3CC=C4C[C@@H](O)CC[C@]4(C)[C@H]3[C@@H](O)C[C@]12C [Compound 1002, 1-((3S,8S,9S,10R,11S,13S,14S,17S)-3,11-dihydroxy-10,13-dimethyl-2,3,4,7,8,9,10,11,12,13,14,15,16,17-tetradecahydro-1H-cyclopenta[a]phenanthren-17-yl)ethanone] | + (+ indicates >110%)
CC(=O)[C@H]1CCC2C3CC=C4C[C@@H](O)CC[C@]4(C)C3[C@@H](O)C[C@@]21C (stereo partly drawn) [Compound 1016, 1-((3S,10R,11S,13S,17S)-3,11-dihydroxy-10,13-dimethyl-2,3,4,7,8,9,10,11,12,13,14,15,16,17-tetradecahydro-1H-cyclopenta[a]phenanthren-17-yl)ethan-1-one] | − (− indicates ≦110%)
